Source: PubChem BioAssay AID248 (DTP/NCI, 2004)
The list is a part of this screen's results and no random one: it is rich in T/C values a quarter to a half above the control, in often repeated tests (any T/C) and in doses without a T/C. Further doses and runs are listed elsewhere. T/C is the treated group as % of the vehicle group. Some entries give survivors of the animals treated and no T/C: the source files T/C as zero there, which appears to mark a toxic dose or a test without result, not a measured value. Some survivor counts are full or nearly so, which does not show that the dose was tolerated: survival well below the control is almost never listed, so the zero probably covers shortened survival too. Survivors were counted at the toxicity check, usually on the fifth day, unless a day is given; later deaths do not show. Schedule codes are those of the source, taken here to give the interval after Q, in days (D) or hours (H), and the number of doses after X.

System: L1210 leukemia ip in BDF1 mice, survival T/C
Experiment: NCI In Vivo Anticancer Drug Screen. Data for tumor model L1210 Leukemia (intraperitoneal) in B6D2F1 (BDF1) mice
Conditions: T/C endpoint: mean survival time, higher T/C = longer survival

SMILES: CCCCC(CC)CCC(C)O (stereo not drawn)
- survivor count (dose: 200.0 mg/kg/injection, schedule: Q01DX009 (ip), vehicle: saline with Tween-80): 6 of 6
- survivor count (dose: 400.0 mg/kg/injection, schedule: Q04DX003 (ip), vehicle: saline with Tween-80): 6 of 6

SMILES: O=C1C2C3c4ccccc4C(C2C(=O)N1c1ccc(Cl)cc1)[n+]1ccccc13 (stereo not drawn)
- survivor count (dose: 300.0 mg/kg/injection, schedule: Q01DX001 (ip), vehicle: other): 0 of 6

SMILES: CCCCCC(=C/c1ccccc1)/C=N/NC(=O)c1ccc[n+](C)c1
- survivor count (dose: 200.0 mg/kg/injection, schedule: Q01DX009 (ip), vehicle: Klucel (hydroxypropylcellulose) (HPC)): 0 of 3

SMILES: CCCCCCC[n+]1ccc(C(=O)c2ccccc2)cc1
- survivor count (dose: 150.0 mg/kg/injection, schedule: Q01DX001 (ip), vehicle: carboxymethylcellulose (CMC)): 1 of 6

SMILES: CC(=O)NC1=C(NC(C)C)C(=O)c2ccccc2C1=O
- survivor count (dose: 25.0 mg/kg/injection, schedule: Q04DX003 (ip), vehicle: saline with Tween-80): 3 of 6
- survivor count (dose: 50.0 mg/kg/injection, schedule: Q04DX003 (ip), vehicle: saline with Tween-80): 2 of 6

SMILES: ON=C(c1ccccc1)c1ccccc1
- survivor count (dose: 400.0 mg/kg/injection, schedule: Q01DX009 (ip), vehicle: saline with Tween-80): 0 of 6
